This test can be described thus: qHTS Assay for Modulators of Lamin A Splicing. The conditions noted are these: HeLa LMNA splicing GFP/RFP minigene ratio, 48 h. In outline:
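S3 HeLa stable clones carrying a lamin A-EGFP splicing minigene plus DsRed2 were seeded at 600 cells/well in Opti-MEM with 2% FBS, pin-dosed and incubated 48 h at 37°C. Acumen cytometry (488 nm) gave the GFP/RFP total-intensity ratio.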
On the technique in general: qHTS replaces the single test concentration by a dilution series.

Where [1] appears, read: measured here: GFP splicing reporter channel.
Setting [2] is: measured here: RFP viability control channel.

This is one part of the list. Further columns of the screen follow, without active or inactive calls. The list favours compounds with an active or inconclusive main result. Words in brackets tell the shape of the fitted curve; partial curves, single points and poor fits give uncertain potencies.

For the molecule `CCN(C(=O)CSc1nnc(Cc2cccc3ccccc23)n1N)C1CCS(=O)(=O)C1` (stereo not drawn), the concentration at half-maximal activity (AC50) by setting is: under setting [1], 0.00501 µM [falling, full curve, poor fit]; under setting [2], 0.00355 µM [falling, full curve, poor fit].
Regarding `CC(C)=CCC/C(C)=C/C=N/NC(=O)c1ccccc1[N+](=O)[O-]`, under setting [2], the AC50 was 0.447 µM [falling, full curve, poor fit].
For `Cc1ccccc1Nc1cc(C)c2c(O)cccc2n1`, the AC50 reads like this: under setting [1], 10 µM [rising, partial curve]; under setting [2], 14.1 µM [rising, partial curve].
Consider `COc1ccccc1C1(O)CCN(CC(=O)Nc2nc(-c3ccccc3)cs2)CC1`, for which, under setting [2], the AC50 is 20 µM [rising, partial curve, poor fit].
Turning to `CC1(OC(=O)CCc2ccccc2)C(=O)C=C2C=C(c3ccc(C#N)cc3)N(Cc3ccco3)C=C2C1=O` (stereo not drawn), the AC50 under setting [2] was 0.316 µM [falling, full curve, poor fit].
The same measure, in the same setting: the figure for `CCCn1c2ccc(/C(C)=N\O)cc2c2cc(/C(C)=N/O)ccc21` is 35.5 µM [rising, single point].
Regarding `CC(c1ccccc1)C1C(C#N)=C(N)OC2=C1C(=O)CC(C)(C)C2` (stereo not drawn), the AC50 runs as follows: under setting [1], 35.5 µM [rising, single point]; under setting [2], 31.6 µM [rising, single point].
For `O=C(Nc1ccnc(-c2ccncc2)n1)c1ccccc1Cl`, under setting [1], the AC50 is 0.501 µM [rising, full curve].
Take `C=CCn1c(O)c(N=NC(=O)CNC(=O)c2ccco2)c2ccccc21`: under setting [2], the half-maximal activity concentration (AC50) was 11.2 µM [rising, partial curve].
For `Cc1cc(C(=O)Cn2nnc3ccccc3c2=O)c(C)n1-c1ccccc1F`, the AC50 under setting [2] is 10 µM [rising, partial curve].
With `COC(=O)c1ccc(/C=N/NS(=O)(=O)c2cc(C)ccc2C)cc1`, the half-maximal activity concentration (AC50) under setting [2] is 1.41 µM [rising, partial curve, poor fit].
For `COC(=O)c1ccc2c(=O)[nH]c(CCl)nc2c1`, the concentration at half-maximal activity (AC50) under setting [1] was 1.78 µM [falling, partial curve, poor fit].
Turning to `CCc1ccccc1NC(=O)Nc1cc(C(=O)NCc2cccc(F)c2)ccc1N1CCCC1`, the half-maximal activity concentration (AC50) is, setting by setting: under setting [1], 15.8 µM [falling, partial curve]; under setting [2], 14.1 µM [falling, partial curve].
For the molecule `CN(C)[C@@H]1C(=O)C(C(N)=O)=C(O)[C@]2(O)C(=O)C3=C(O)c4c(O)ccc(Cl)c4[C@H](O)[C@H]3C[C@@H]12`, the AC50 is, setting by setting: under setting [1], 0.282 µM [falling, single point]; under setting [2], 0.282 µM [falling, partial curve, poor fit].
In the case of `COc1ccc(-c2nc3c(c4c2C[C@H](c2ccccc2)OC4)CN(C(=O)c2cc(I)ccc2F)CC3)c(C)c1`, the AC50 under setting [1] was 0.501 µM [rising, single point].
`Cc1ccc(NC(=S)N=Nc2c(O)n(C)c3ccc(S(=O)(=O)N4CCOCC4)cc23)cc1`: the AC50 under setting [2] is 6.31 µM [rising, partial curve].
On to `CCCN(CCC)CC(O)COc1ccc2c(c1)OCO2` (stereo not drawn), for which the half-maximal activity concentration (AC50) under setting [1] is 22.4 µM [rising, partial curve, poor fit].
With `Cc1cc(C)nc(-n2ncc3c2CC(c2cccc(Cl)c2)CC3=O)n1` (stereo not drawn), the concentration at half-maximal activity (AC50) is 0.251 µM [rising, full curve] under setting [1] and 0.316 µM [rising, full curve] under setting [2].
On to `O=C(Nc1ccc2c(c1)OCCO2)C1CCN(S(=O)(=O)c2ccc(Br)s2)CC1`, for which, under setting [2], the AC50 is 22.4 µM [rising, single point].
On the same count and under the same terms, the figure for `O=C(NCCN1C(=O)S/C(=C\c2ccccc2)C1=O)c1cc(S(=O)(=O)N2CCOCC2)c(Cl)cc1Cl` is 10 µM [rising, partial curve, poor fit].
As for `Cc1ccc(C(=O)N2CCc3cc(CNC(=O)c4ccc(Br)cc4)ccc32)cc1`, the AC50 runs as follows: under setting [1], 10 µM [falling, partial curve, poor fit]; under setting [2], 0.0447 µM [falling, full curve, poor fit].
Take `O=C(CSc1nc2ccccc2c(=O)n1-c1ccccc1Cl)Nc1cccc(S(=O)(=O)N2CCOCC2)c1`: the AC50 was 3.98 µM [rising, full curve, poor fit] under setting [1] and 6.31 µM [rising, partial curve, poor fit] under setting [2].
Take `CCc1ccc(NC(=S)NC2CC3CCCC(C2)N3Cc2cccs2)cc1` (stereo not drawn): the AC50 runs as follows: under setting [1], 20 µM [falling, partial curve, poor fit]; under setting [2], 15.8 µM [falling, partial curve, poor fit].
`Cc1ccccc1NS(=O)(=O)c1cc(C(=O)NCCSC2CCCCC2)ccc1C`: the half-maximal activity concentration (AC50) was 12.6 µM [falling, single point] under setting [1] and 14.1 µM [falling, partial curve, poor fit] under setting [2].
In the case of `CS(=O)(=O)NCC(c1ccco1)N1CCN(c2ccc(F)cc2)CC1` (stereo not drawn), under setting [1], the half-maximal activity concentration (AC50) is 0.00316 µM [rising, full curve, poor fit].
In the case of `Cc1cccc(C)c1NC(=O)C(=O)NCC(c1ccc2c(c1)OCO2)N1CCOCC1` (stereo not drawn), the half-maximal activity concentration (AC50) by setting is: under setting [1], 0.02 µM [falling, full curve, poor fit]; under setting [2], 0.02 µM [falling, full curve, poor fit].
On to `Cn1c(=O)c2c(ncn2CC(=O)NCc2cccnc2)n(C)c1=O`, for which the AC50 under setting [2] is 0.0562 µM [falling, full curve, poor fit].
For `COc1ccc(-n2c(C)cc(C(=O)COC(=O)Cc3n[nH]c(=O)c4ccccc34)c2C)cc1`, the AC50 is 14.1 µM [rising, partial curve] under setting [1] and 35.5 µM [rising, partial curve] under setting [2].
As for `COc1ccccc1C(=O)Nc1cccc(-c2cn3ccsc3n2)c1`, the AC50 under setting [2] was 20 µM [rising, partial curve, poor fit].
As for `Cc1onc(-c2ccccc2Cl)c1C(=O)N[C@H]1C(=O)N2[C@H]1SC(C)(C)[C@H]2C(=O)O`, the concentration at half-maximal activity (AC50) runs as follows: under setting [1], 0.891 µM [falling, full curve, poor fit]; under setting [2], 14.1 µM [falling, single point].
For the molecule `CC(O)CNCCCOc1cccc(Oc2ccccc2)c1` (stereo not drawn), the AC50 was 0.178 µM [falling, full curve] under setting [1] and 0.158 µM [falling, full curve, poor fit] under setting [2].
`CCN1CCCc2cc(CN(CCN3CCOCC3)C(=S)Nc3ccccc3OC)ccc21`: the AC50 under setting [1] was 25.1 µM [falling, partial curve, poor fit].
In the case of `CC(=O)N(C(C)=O)c1ncnc2c1c(-c1ccc(Cl)cc1)nn2C(C)(C)C`, the AC50 reads like this: under setting [1], 14.1 µM [falling, partial curve]; under setting [2], 35.5 µM [falling, partial curve].
Turning to `COc1ccc(CNc2cc(C)ccc2C)c(OC)c1OC`, under setting [2], the AC50 was 0.0355 µM [rising, full curve, poor fit].
Take `O=C(Nc1ccc(S(=O)(=O)NCc2ccccc2)cc1)c1ccccc1[N+](=O)[O-]`: the AC50 reads like this: under setting [1], 0.0316 µM [rising, full curve, poor fit]; under setting [2], 25.1 µM [rising, partial curve, poor fit].
Turning to `CCC1(C)Cc2c(sc3nnn(CC(=O)Nc4ccc(Cl)cc4)c(=O)c23)CO1` (stereo not drawn), the half-maximal activity concentration (AC50) under setting [1] was 14.1 µM [falling, single point].
`C=CCN1C(c2ccccc2)=CS/C1=C(\C#N)c1nnc2n1CCCCC2`: the AC50 by setting is: under setting [1], 7.08 µM [rising, partial curve, poor fit]; under setting [2], 7.94 µM [rising, single point].
In the case of `c1ccc2c(c1)nc(N1CCOCC1)c1c3ccccc3[nH]c21`, the concentration at half-maximal activity (AC50) reads like this: under setting [1], 35.5 µM [rising, single point]; under setting [2], 25.1 µM [rising, single point].
Regarding `COc1ccc(Br)cc1CNC(C)c1ccccc1` (stereo not drawn), the AC50 is 8.91 µM [rising, partial curve] under setting [1] and 7.08 µM [rising, full curve, poor fit] under setting [2].
As to `COc1cccc(NC(=S)N2CCN(c3ccccn3)CC2)c1`, the AC50 under setting [2] is 17.8 µM [rising, partial curve, poor fit].
Same read-out and setting: the figure for `CCOC(=O)c1c(C)nc2ccccc2c1-c1ccccc1` is 10 µM [rising, single point].
`N#CCSc1nccc(-c2cc(Cl)sc2Cl)n1`: under setting [1], the AC50 was 35.5 µM [rising, single point].
Regarding `Cc1cc(C)c(C#N)c(Oc2ccccc2Br)n1`, the AC50 under setting [1] is 0.0794 µM [rising, partial curve, poor fit] and the AC50 under setting [2] was 0.0141 µM [rising, full curve, poor fit].
`COc1ccc2c(c1)c(CC(=O)Nc1ccc(C(C)=O)cc1)c(C)n2C(=O)c1ccc(Cl)cc1`: the AC50 under setting [2] was 15.8 µM [rising, partial curve, poor fit].
Take `c1ccc(N2CCN(c3nc(NCc4ccco4)c4ccccc4n3)CC2)cc1`: the AC50 under setting [2] was 35.5 µM [rising, single point].
With `O=c1oc2ccccc2cc1-c1csc(Nc2ccc(O)cc2)n1`, the AC50 under setting [2] is 10 µM [rising, partial curve, poor fit].
Take `Cc1ccc(-c2nnc(SCC(=O)N/N=C/c3c(C)nn(-c4ccccc4)c3C)n2-c2ccccc2)cc1`: the AC50 under setting [2] is 20 µM [rising, partial curve, poor fit].
As to `CCn1c(O)c(C=Nc2ccccc2)sc1=O`, under setting [1], the concentration at half-maximal activity (AC50) is 0.158 µM [rising, full curve, poor fit].
Regarding `CCOC(=O)c1cnn(-c2ccc(Cl)cc2)c1C1CCN(C(=O)OC(C)(C)C)CC1`, the AC50 under setting [2] is 31.6 µM [rising, single point].
For the molecule `CC(=O)c1cccc(N2C(=O)C3C4CCC(C4=C(C)C)C3C2=O)c1` (stereo not drawn), the AC50 runs as follows: under setting [1], 22.4 µM [falling, single point]; under setting [2], 0.0447 µM [falling, full curve, poor fit].
`O=C(N/N=C/c1cc(Br)ccc1O)C(=O)Nc1ccccc1OC(F)(F)C(F)F`: the half-maximal activity concentration (AC50) was 5.62 µM [falling, full curve] under setting [1] and 6.31 µM [falling, full curve] under setting [2].

By AC50 is commonly meant the concentration giving half of the maximal activity seen.

The record behind these values is PubChem BioAssay AID1487 (National Center for Advancing Translational Sciences (NCATS), 2009).
